Source: US6143722A, “Heptapeptide oxytocin analogues” (Ferring, B.V., priority 1996, dated 2000)
At least one peptide structure holds a part that was inferred or is arguable (an end, a ring closure or a residue). *1 amine or outer side, *2 acyl side, *3 side chain or, on linkers, in order; H or OH if unused. Where a SMILES comes first, the peptide text is derived from it. Bridges are numbered along the chain shown (N, C = ends). [ ]: non-standard residue; d: D form. ξ: configuration not given here. aIle = CC[C@@H](C)[C@H](N)C(=O)O; hCys = N[C@@H](CCS)C(=O)O; ξNMeOrn = CNC(CCCN)C(=O)O; X1 = O=C(CC[*:2])[*:1]

Tested on: myometrium
Assay type: in vivo, Sprague Dawley rats
Details: duration of action: time for the effectiveness of a single dose to decline by 75%; antagonist dose 8×10^-4 -4×10^-3 μmol/kg
Method: Sprague Dawley rats (ca. 250 g) in natural estrus were anaesthetised with Inactin (0.5 mg/100 g body weight, i.p.). The activity of the myometrium was measured with the aid of a catheter fixed in the uterine cavity and filled with modified Lockes solution. The catheter was connected to a Statham P23D force transducer and the contractions were recorded on a Grass polygraph (model 7D).
The dose-response curve for oxytocin (2×10^-4 -5×10^-3 μmol/kg) was recorded. In this case the response was quantified by integration of the curve during the 15 minutes following agonist injection. A dose of oxytocin giving an effect corresponding to an intralumenar contraction pressure of 10-30 mm Hg and within the linear section of the curve was selected. This dose of oxytocin was administered to the animal in conjunction with at least two different doses of antagonist and the effect was recorded. The dose of antagonist which reduces the effect of the agonist to 50% of tis control value was determined by interpolation and is given here as an ID50 value. […]
The duration of action of the antagonists was also determined in this model. […] The effect determined here is the same as for the ID50 determination defined above. […] At 20 minute intervals thereafter, doses of the agonist alone were administered and the response was measured. […]

CC[C@@H](C)[C@@H]1NC(=O)[C@H]([C@@H](C)CC)NC(=O)[C@@H](Cc2c[nH]c3ccccc23)NC(=O)CCSCC[C@@H](C(=O)N(C)C(CCCN)C(N)=O)NC(=O)[C@H](CC(N)=O)NC1=O (stereo partly shown) [r-IX, reference compound] ([dW]I[aIle]N[hCys][ξNMeOrn]-NH2; linker N-5 via X1)
t75, rat model: 180 ± 9 min
